Assay results taken from patent publication US9969766B2, “20(R)-ginsenoside Rg3 polyacylated derivatives, preparation and application thereof” (priority 2014, dated 2018).
Some entries share one result that the patent states for a list of compounds. Some compounds share one range, which may span the group rather than tell each member.

Key:
[1] = tested on: mouse Lewis lung cancer; test: Mouse Lewis lung cancer, toe subcutaneous inoculation, anti-tumor test; conditions: summary of Table 1 and Table 2, mouse and human solid tumor models
Text: (§1) human breast cancer Bcap-37 model, human lung cancer A549 model, human intestinal cancer LOVO model, human stomach cancer MGC model and human liver cancer QGY model, with tumor cell lines being of the second generation or more, mouse B16 melanoma cell line, mouse Lewis lung cancer model, mouse sarcoma s180 model, all passaged and preserved in Pharmacological Division of Shanghai Institute of Pharmaceutical Industry. 3. Experiment Animals Origins: nude mice, 6-week old, 18-22 g/mouse, provided by Laboratory Animal Center of Chinese Academy of Sciences, Shanghai Branch, with certification No. 2001A032. C57BL/6 mice and Kunming mice, 18-22 g/mouse, provided by Laboratory Animal Center of Chinese Academy of Sciences, Shanghai Branch, with certification SYXK (Shanghai) 2004-0015. Gender: male or female, the same gender for each batch in experiment Animal numbers: 10 mice and 10 nude mice for each of positive control group and test group in experiment, and 20 for negative control group. 4. Experiment Design Dose Settings: doses for 20(R)-ginsenoside Rg3 octo-acetate, 20(R)-ginsenoside Rg3 octo-n-butyrate and 20(R)-ginsenoside Rg3 octo-n-propionate were set as high-dose group (0.3 mg/kg/d), medium-dose group (0.06 mg/kg/d), and low-dose group (0.012 mg/kg/d). […]

[2] = tested on: mouse melanoma B16 cells; test: Mouse melanoma B16 tail vein inoculation, lung metastasis; conditions: summary of Table 3-6: B16, S180, Lewis lung cancer and human lung cancer metastasis models
Text: as §1

## CC(=O)OC[C@H]1O[C@@H](OC2CC[C@]3(C)C(CC[C@@]4(C)C3C[C@H](OC(C)=O)C3C([C@@](C)(O)CCC=C(C)C)CC[C@@]34C)C2(C)C)[C@H](OC2O[C@H](COC(C)=O)[C@@H](OC(C)=O)[C@H](OC(C)=O)[C@H]2OC(C)=O)[C@@H](OC(C)=O)[C@@H]1OC(C)=O (stereo partly drawn) [Rg3-octo-acetate, 20 (R)-ginsenoside Rg3 octaacetate]
[1]
  optimal tumor inhibition rate of the treatment group: exceed 70%
[2]
  cancer metastasis inhibition rates: 70-80%
